Results deposited as PubChem BioAssay AID1671195 (Yale University, 2021)

Purpose: 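Genes whose knockdown alters LDL uptake in liver cancer cells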 (primary screen)
Cell system: human Huh7 hepatoma cells
Reagent: siRNA pool against human genes, 18 nM
Timing: about 2 to 2.5 days of knockdown, then 8 h LDL uptake
Challenge: DiI-labelled LDL at 30 µg/ml for 8 h, in lipoprotein-deficient serum medium
Measured: 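Per-cell DiI-LDL intensity by automated imaging; well means scaled to the plate median and given as a robust z-score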
Reading the numbers: robust z-score: higher = more LDL uptake after knockdown
Rule for the call: 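Active when two or more replicates show a robust z-score above 2 or below -2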
Here is one part, drawn at random, of about 22,000 deposited reagents. About 1,510 of all reagents (6.9%) count as active. 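Active includes knockdowns raising or lowering LDL uptake; positive z-scores mean more uptake, negative mean less.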 Reagents against one gene are numbered here.

| gene | pool no. | robust z-score, replicate 1 | robust z-score, replicate 2 | robust z-score, replicate 3 | Outcome |
| --- | --- | --- | --- | --- | --- |
| LOC442015 (retired record) | 1 | 1.29 | 1.51 | 1.44 | inactive |
| CTU2 (cytosolic thiouridylase subunit 2) | 1 | -0.238 | -1.05 | -1 | inactive |
| H1-8 (H1.8 linker histone) | 1 | -0.758 | -1.03 | -0.0569 | inactive |
| FLJ37201 (tigger transposable element derived 2 pseudogene) | 1 | -0.114 | 0.0484 | -0.198 | inactive |
| RAB23 (RAB23, member RAS oncogene family) | 1 | 0.00263 | -1.46 | -1.69 | inactive |
| SLC6A14 | 1 | -0.294 | -0.374 | -0.865 | inactive |
| LOC441352 (retired record) | 1 | -0.161 | -0.568 | -0.234 | inactive |
| TPST2 (tyrosylprotein sulfotransferase 2) | 1 | -2.82 | -2.39 | -2.54 | active |
| SLC4A2 | 1 | -0.794 | -0.474 | -0.991 | inactive |
| WNT9B (Wnt family member 9B) | 1 | -0.377 | -0.0807 | -1.17 | inactive |
| LOC440118 (retired record) | 1 | 2.65 | 3.01 | 2.38 | active |
| SLAMF7 (SLAM family member 7) | 1 | -0.965 | -1.07 | -0.872 | inactive |
| PYGO1 (pygopus family PHD finger 1) | 1 | 0.501 | 0.269 | 0.244 | inactive |
| CYP4F24P (cytochrome P450 family 4 subfamily F member 24, pseudogene) | 1 | 2.77 | 2.7 | 2.9 | active |
| RNASE12 (ribonuclease A family member 12 (inactive)) | 1 | -0.0945 | 0.0612 | 0.107 | inactive |
| NES (nestin) | 1 | -1.19 | -1.07 | 0.44 | inactive |
| BCL2L10 (BCL2 like 10) | 1 | 1.61 | 1.3 | 0.684 | inactive |
| FBXO32 (F-box protein 32) | 1 | -0.383 | -0.953 | -0.984 | inactive |
| XYLT1 (xylosyltransferase 1) | 1 | 2.21 | 2.35 | 2.06 | active |
| MARCHF3 (membrane associated ring-CH-type finger 3) | 1 | -0.428 | 1.36 | 0.26 | inactive |
| RAB35 (RAB35, member RAS oncogene family) | 1 | -1.24 | -1.26 | -1.34 | inactive |
| GABRR1 (gamma-aminobutyric acid type A receptor subunit rho1) | 1 | -1.78 | -1.14 | -1.62 | inactive |
| PARP4 (poly(ADP-ribose) polymerase family member 4) | 1 | -0.981 | -0.958 | -0.334 | inactive |
| GLDC (glycine decarboxylase) | 1 | -0.531 | -0.569 | -0.782 | inactive |
| BMP8A (bone morphogenetic protein 8a) | 1 | 1.17 | 0.531 | 1.05 | inactive |
| BMP8A (bone morphogenetic protein 8a) | 2 | -0.997 | -0.975 | -1.17 | inactive |
| CRYM (crystallin mu) | 1 | -1.5 | -0.648 | -1.02 | inactive |
| PRKCI (protein kinase C iota) | 1 | 0.437 | -0.901 | 0.0515 | inactive |
| RPS5 (ribosomal protein S5) | 1 | -0.0274 | 0.415 | 1.95 | inactive |
| DCLRE1C (DNA cross-link repair 1C) | 1 | -0.86 | -1.16 | -1.25 | inactive |
| ADGRG2 (adhesion G protein-coupled receptor G2) | 1 | 1.82 | -0.175 | 0.972 | inactive |
| FASTK (Fas activated serine/threonine kinase) | 1 | 3.06 | 2.8 | 2.35 | active |
| ASPDH (aspartate dehydrogenase domain containing) | 1 | 1.03 | 0.353 | 0.215 | inactive |
| LINC02910 (long intergenic non-protein coding RNA 2910) | 1 | 4.83 | 5.14 | 4.41 | active |
| CHST9 (carbohydrate sulfotransferase 9) | 1 | -1.38 | -1.03 | -1.73 | inactive |
| KLK10 (kallikrein related peptidase 10) | 1 | -0.643 | -0.807 | -0.885 | inactive |
| LPIN2 (lipin 2) | 1 | -0.897 | -1.42 | -1.27 | inactive |
| TBXA2R (thromboxane A2 receptor) | 1 | -0.0306 | -0.508 | -0.241 | inactive |
| PRXL2C (peroxiredoxin like 2C) | 1 | 0.899 | -0.288 | -0.124 | inactive |
| ATP5PF (ATP synthase peripheral stalk subunit F6) | 1 | 1.59 | 1.56 | 0.484 | inactive |
| ZMPSTE24 (zinc metallopeptidase STE24) | 1 | 0.29 | -0.136 | 0.721 | inactive |
| LOC388421 (retired record) | 1 | -0.497 | 0.176 | -0.226 | inactive |
| LOC389815 (retired record) | 1 | 0.492 | 0.398 | 1.04 | inactive |
| ANKRD53 (ankyrin repeat domain 53) | 1 | -0.228 | 0.338 | 0.162 | inactive |
| MYL7 (myosin light chain 7) | 1 | -0.0557 | 0.0482 | -0.159 | inactive |
| THBS4 (thrombospondin 4) | 1 | -1.06 | -1.24 | -0.515 | inactive |
| CEACAM22P (CEA cell adhesion molecule 22, pseudogene) | 1 | -0.0961 | -0.158 | -0.127 | inactive |
| LOC149329 (retired record) | 1 | 0.207 | -0.135 | -0.556 | inactive |
| UBE2T (ubiquitin conjugating enzyme E2 T) | 1 | 0.398 | 0.216 | -0.412 | inactive |
| ATP5MJ (ATP synthase membrane subunit j) | 1 | 0.747 | 1.65 | 0.853 | inactive |
| SLC5A11 | 1 | 0.139 | 0.374 | 0.874 | inactive |
| ARHGEF38 (Rho guanine nucleotide exchange factor 38) | 1 | 1.03 | 0.969 | 0.619 | inactive |
| ARHGEF38 (Rho guanine nucleotide exchange factor 38) | 2 | -0.0581 | 0.297 | 0.956 | inactive |
| DENND4B (DENN domain containing 4B) | 1 | 2.41 | 0.199 | 0.69 | inactive |
| DHRS7B (dehydrogenase/reductase 7B) | 1 | -1.09 | -1.25 | -1.31 | inactive |
| DHX32 (DEAH-box helicase 32 (putative)) | 1 | -1.01 | -1.29 | -0.343 | inactive |
| GLRB (glycine receptor beta) | 1 | 1.8 | 1.91 | 1.47 | inactive |
| PRKAG1 (protein kinase AMP-activated non-catalytic subunit gamma 1) | 1 | 1.23 | 2.06 | 2.87 | active |
| GYG1 (glycogenin 1) | 1 | 1.2 | 0.796 | 0.867 | inactive |
| SFTPA2B (retired record) | 1 | 0.586 | -0.742 | 0.475 | inactive |
| ATG4D (autophagy related 4D cysteine peptidase) | 1 | -1.66 | -1.66 | -1.66 | inactive |
| SLC8A3 | 1 | 0.602 | 0.71 | 0.169 | inactive |
| GPR88 (G protein-coupled receptor 88) | 1 | 0.936 | -0.132 | -0.377 | inactive |
| LATS2 (large tumor suppressor kinase 2) | 1 | -0.575 | 0.354 | 0.174 | inactive |
| REEP2 (receptor accessory protein 2) | 1 | 1.26 | 2.6 | 1.63 | inactive |
| LOC441241 (vitamin K epoxide reductase complex subunit 1L1 pseudogene) | 1 | 1.26 | 1.68 | 0.931 | inactive |
| TRMT2A (tRNA methyltransferase 2A) | 1 | 0.051 | -0.229 | 0.808 | inactive |
| LOC440701 (retired record) | 1 | -0.634 | -0.411 | -0.647 | inactive |

In a second layout: 5 of the entries above.
NES (nestin) → robust z-score, replicate 1 = -1.19; robust z-score, replicate 2 = -1.07; robust z-score, replicate 3 = 0.44; Outcome = inactive
BCL2L10 (BCL2 like 10) → robust z-score, replicate 1 = 1.61; robust z-score, replicate 2 = 1.3; robust z-score, replicate 3 = 0.684; Outcome = inactive
FBXO32 (F-box protein 32) → robust z-score, replicate 1 = -0.383; robust z-score, replicate 2 = -0.953; robust z-score, replicate 3 = -0.984; Outcome = inactive
XYLT1 (xylosyltransferase 1) → robust z-score, replicate 1 = 2.21; robust z-score, replicate 2 = 2.35; robust z-score, replicate 3 = 2.06; Outcome = active
MARCHF3 (membrane associated ring-CH-type finger 3) → robust z-score, replicate 1 = -0.428; robust z-score, replicate 2 = 1.36; robust z-score, replicate 3 = 0.26; Outcome = inactive
